The nature of this experiment: qHTS Assay for Lipid Storage Modulators in Drosophila S3 Cells.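 For cell number change: cells counted by Cell Tracker Red CMTPX staining in the red channel.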 The settings on record: BODIPY lipid droplet fluorescence, 18-24 h; for cell number change: measured here: cell count max response, cells fed with added oleic acid. The procedure, abridged: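 Drosophila S3 cells loaded with oleic acid (400 uM, as added) and compounds at several concentrations; lipid droplets imaged by 488-nm laser-scanning cytometry, 500–530 nm intensity and object ratio to cell channel. Percent activity normalized to 20 uM Triacsin C.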

[1] abbreviates: measured here: cell number channel AC50, cells fed with added oleic acid.
[2] abbreviates: measured here: lipid fluorescence (Fed channel) AC50, cells fed with added oleic acid.

The values below come from PubChem BioAssay AID2685 (National Center for Advancing Translational Sciences (NCATS), 2010).

Some of the results follow. Shown are side measurements of this screen, not its main read-out; they come without a call. Most of these compounds were active or inconclusive in the main read-out, so they are no random draw. The note in brackets gives the kind of curve behind each potency; many fits are weak.

For orientation: AC50 means the concentration giving half of the maximal activity seen. As for `CC1CCC(NC(=O)C2CCC(CNS(=O)(=O)c3cccc4nsnc34)CC2)CC1` (configuration not stated), the cell number change is -36.2%. The AC50 under setting [1] was 0.731 µM [falling, full curve]. As to `CSc1nsc2nc(=O)c(/C=C3\C=Nc4ccccc43)c(N)n12`, the cell number change was 8.53%. The AC50 under setting [1] was 3.66 µM [rising, single point]. For the compound `Cn1c(=O)c(C(=O)NCCc2ccccc2)c(O)c2ccccc21`, the cell number change is -19.8%. Also, the AC50 under setting [2] is 0.58 µM [falling, single point]. Take `C/C(=N\NC(=O)c1nn(C)c(C)c1Br)c1cccc(NC(=O)c2ccc(F)cc2)c1`: the AC50 under setting [2] is 20.6 µM [rising, single point].

As for `O=C1CSC(c2ccncc2)N1Cc1ccccc1` (configuration not stated), the AC50 under setting [2] is 0.092 µM [falling, single point]. Still for that read-out and setting: then `COc1ccc(S(=O)(=O)N(C)C)cc1NC(=O)CSc1nnc(-c2cccnc2)o1`, with 0.58 µM [falling, single point]. As for `O=C(NNC(=O)c1cccnc1SCc1cccc([N+](=O)[O-])c1)c1cccnc1`, the cell number change amounted to 3.56%. The same measure, in the same setting: then `O=C(CCCN1C(=O)c2cccc3cccc(c23)C1=O)N1CCN(c2ccccn2)CC1`, with -1.65%. In the case of `CCOc1ccccc1C(=O)NC1CCN(Cc2nnnn2C2CCCC2)CC1`, the cell number change was -1.82%. For the same compound, the concentration at half-maximal activity (AC50) under setting [2] is 6.51 µM [rising, single point]. As for `CCOc1ccc(C(=O)Nc2ccc(NC(=O)c3ccco3)c(Cl)c2)cc1Br`, the AC50 under setting [1] was 0.164 µM [rising, full curve, poor fit]. Take `Cc1ccc(NC(=S)NCc2ccccc2)c(C)c1`: the cell number change was -2.03%. In addition, the AC50 under setting [2] is 23.1 µM [falling, single point]. Take `CCOc1ccc(CCN2CN(C3CCCCC3)CNC2=S)cc1OCC`: the cell number change is -35.8%. In addition, the AC50 under setting [1] is 0.184 µM [falling, full curve, poor fit].

Regarding `CN1CCN(C(=S)Nc2cc([N+](=O)[O-])ccc2Cl)CC1`, the AC50 under setting [1] was 2.91 µM [rising, partial curve] and the half-maximal activity concentration (AC50) under setting [2] was 0.00461 µM [falling, full curve, poor fit]. For `O=C1CSC(c2cccnc2)N1c1cccc(Cl)c1` (configuration not stated), the cell number change came to 3.3%. The AC50 under setting [1] was 0.517 µM [falling, single point]. With `Cc1ccc(COc2ccc3c(c2)OCO3)cc1`, the cell number change stood at 9.66%. Under setting [1], the AC50 was 0.411 µM [rising, partial curve, poor fit]. In addition, under setting [2], the AC50 is 29.1 µM [rising, single point].

For the compound `Cc1ccc(C)c(S(=O)(=O)N2CCN(C(C(=O)Nc3ccc(F)cc3)c3ccccc3)CC2)c1` (configuration not stated), the cell number change is 33.3%. The AC50 under setting [1] is 4.11 µM [falling, partial curve].

Regarding `CCN(CC)c1ccc(NC(=O)/C=C\c2ccccc2Cl)cc1`, the AC50 is, setting by setting: under setting [1], 2.59 µM [rising, partial curve]; under setting [2], 2.31 µM [rising, partial curve].

As for `Cc1ccc(O)c(CNc2ccccn2)c1`, the cell number change was determined as 75.5%. Further, the concentration at half-maximal activity (AC50) under setting [1] was 18.4 µM [rising, single point]. The AC50 under setting [2] is 0.58 µM [falling, partial curve]. For `COc1ccc(-c2csc(NC(=O)C3CCN(C(=O)c4ccc(F)cc4)CC3)n2)cc1OC`, the cell number change is -50%. The AC50 under setting [1] is 29.1 µM [falling, single point].

As to `O=C(O)C1(c2ccccc2)CCN(S(=O)(=O)c2ccc(F)c(F)c2)CC1`, the cell number change was found to be 9.91%. In addition, the half-maximal activity concentration (AC50) under setting [2] is 6.51 µM [rising, single point]. Regarding `COc1ccc(NC(=O)CSc2nnc(NC(=O)c3ccco3)s2)cc1`, the cell number change stood at 12.8%. Besides, under setting [1], the AC50 is 1.16 µM [rising, single point]. Besides, the AC50 under setting [2] is 1.16 µM [rising, single point]. For `O=C(N1CCOCC1)N1CCC(n2nnc3cc(F)ccc32)CC1`, the cell number change was -64.8%. Further, the AC50 under setting [1] was 20.6 µM [falling, partial curve, poor fit]. Moreover, under setting [2], the half-maximal activity concentration (AC50) is 20.6 µM [falling, partial curve]. For the compound `Fc1ccc(Nc2nc3ccccc3s2)cc1`, the cell number change amounted to 14.5%.

With `O/N=C/c1cn(-c2ccccc2)nn1`, the cell number change is -19.9%. As for `CC(CO)NCC12CC3CC(CC(C3)C1)C2` (configuration not stated), the cell number change was -0.955%.

Take `CCc1nnc(SC(C)C(=O)Nc2nccs2)n1C` (configuration not stated): the cell number change stood at 11.8%. Same read-out and setting: next, `COc1ccc(CC(=O)N/N=C(\C)CC(=O)Nc2ccc(N(C)C)cc2)cc1`: 20.9%. As for `COc1ccc2[nH]c(=O)c(CN(Cc3cccs3)S(=O)(=O)c3cccc4nsnc34)cc2c1`, the AC50 was 4.11 µM [rising, single point] under setting [1] and 6.51 µM [rising, single point] under setting [2]. On to `COc1ccc2cc(C(=O)C3CCCN(C(=O)CCc4ccccn4)C3)ccc2c1` (configuration not stated), for which the cell number change is -22.7%. The AC50 under setting [2] was 29.1 µM [falling, single point]. For `O=C1CCCN1CCCNc1ncnc2sccc12`, the cell number change turned out to be 4.47%. Further, the AC50 under setting [2] was 14.6 µM [falling, partial curve].

As to `COc1ccc(S(=O)(=O)NCC2CCC(C(=O)NCC(OC)OC)CC2)cc1` (configuration not stated), the cell number change is -30.4%. The AC50 under setting [2] is 29.1 µM [falling, single point]. Turning to `CCC(=O)N1CCN(c2ccccc2NC(=O)c2ccc(OC)c(Cl)c2)CC1`, the cell number change was found to be 85.1%. The AC50 under setting [1] was 4.61 µM [rising, partial curve]. For the same compound, the half-maximal activity concentration (AC50) under setting [2] was 20.6 µM [rising, partial curve]. With `CCNc1nc(NCC)nc(OCCNS(=O)(=O)c2cc(C)ccc2C)n1`, under setting [1], the AC50 is 0.184 µM [rising, full curve, poor fit]. With `CCN(CC)C(=O)COC(=O)C1CCN(S(=O)(=O)c2ccc3c(c2)OCCO3)CC1`, the cell number change stood at 3.11%. Also, the AC50 under setting [1] was 0.206 µM [falling, full curve, poor fit]. For the same compound, the AC50 under setting [2] was 6.51 µM [falling, single point]. Turning to `Cc1nn(CCCC(=O)N2CCN(c3ccc(F)cc3)CC2)c(C)c1[N+](=O)[O-]`, the cell number change amounted to 36.6%. For the same compound, under setting [1], the AC50 was 32.6 µM [rising, single point]. With `CC(=O)Nc1ccc(NC(=O)Oc2ccccc2)cc1`, the cell number change was -15.1%. Consider `COc1ccc(C2C(C#N)=C(N)N(c3ccccc3)C3=C2C(=O)CCC3)cc1Cn1cc([N+](=O)[O-])cn1` (configuration not stated), for which the cell number change is -35.4%. Also, under setting [1], the half-maximal activity concentration (AC50) was 29.1 µM [falling, single point]. The concentration at half-maximal activity (AC50) under setting [2] was 29.1 µM [falling, single point].

For the compound `COc1ccc(S(=O)(=O)N2CCCCC2)cc1NC(=O)c1ccc(OC)c(OC)c1`, the cell number change was 51.4%.

Turning to `COC(=O)C1=C(C)Nc2c(c(=O)n(C)c(=O)n2C)C1c1ccc(C)cc1` (configuration not stated), the cell number change was found to be 27.5%.

As for `Cc1csc(NC(=O)CSc2nnc(Cn3c(=O)sc4ccccc43)n2-c2ccccc2)n1`, the cell number change is -17.2%. Besides, the concentration at half-maximal activity (AC50) under setting [2] was 23.1 µM [falling, single point].
